These are yes or no findings as the source states them, for the method shown.
Biological target: T1, recombinant human S100A8 (human) (UniProt P05109)
T1 sequence: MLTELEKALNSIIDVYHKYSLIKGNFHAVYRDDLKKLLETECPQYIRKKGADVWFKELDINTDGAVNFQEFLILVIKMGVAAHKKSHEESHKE
Assay: SPR; Biacore 3000; S100A8 and S100A9 immobilised in separate flow cells on a CM5 chip by amine coupling, to the same level; CD14 injected at 50 to 800 nM for 2 min at 30 ul/min in HBS-P (10 mM HEPES, 0.15 M NaCl, pH 7.4, 0.005% P20) with 1 mM Ca2+ and 20 uM Zn2+; regeneration with 3 mM EDTA; sensorgrams fit to a 1:1 model; both purified

- binding: no binding (tested: 50 to 800 nM CD14)
B1: recombinant human CD14 (receptor, UniProt P08571 20-345)
chain: TTPEPCELDDEDFRCVCNFSEPQPDWSEAFQCVSAVEVEIHAGGLNLEPFLKRVDADADPRQYADTVKALRVRRLTVGAAQVPAQLLVGALRVLAYSRLKELTLEDLKITGTMPPLPLEATGLALSSLRLRNVSWATGRSWLAELQQWLKPGLKVLSIAQAHSPAFSCEQVRAFPALTSLDLSDNPGLGERGLMAALCPHKFPAIQNLALRNTGMETPTGVCAALAAAGVQPHSLDLSHNSLRATVNPSAPRCMWSSALNSLNLSFAGLEQVPKGLPAKLRVLDLSCNRLNRAPQPDELPEVDNLTLDGNPFLVPGTALPHEGSMN
